Measured values reported in the supplement of paper PMC10849652.
The other results are listed elsewhere or left out.

Amino acid sequences for entries named in this document (tags omitted). A change or cut given only in a name is not applied to a line headed by its entry.
UniProt Q8NCW5: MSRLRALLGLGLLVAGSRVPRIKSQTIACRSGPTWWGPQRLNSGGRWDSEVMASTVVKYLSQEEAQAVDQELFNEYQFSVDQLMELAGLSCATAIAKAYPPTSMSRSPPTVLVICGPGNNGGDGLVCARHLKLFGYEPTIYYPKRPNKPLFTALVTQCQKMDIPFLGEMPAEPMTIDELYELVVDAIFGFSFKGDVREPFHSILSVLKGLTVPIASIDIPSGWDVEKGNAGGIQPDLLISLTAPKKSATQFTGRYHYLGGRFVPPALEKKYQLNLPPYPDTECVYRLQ
UniProt Q8TBE9: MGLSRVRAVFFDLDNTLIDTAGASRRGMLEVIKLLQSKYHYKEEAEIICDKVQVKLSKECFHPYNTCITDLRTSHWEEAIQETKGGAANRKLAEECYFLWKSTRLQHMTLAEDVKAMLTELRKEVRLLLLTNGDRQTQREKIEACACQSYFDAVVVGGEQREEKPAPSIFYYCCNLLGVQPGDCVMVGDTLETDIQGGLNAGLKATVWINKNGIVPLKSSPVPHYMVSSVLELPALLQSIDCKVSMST
UniProt O75306, whole entry, looked up: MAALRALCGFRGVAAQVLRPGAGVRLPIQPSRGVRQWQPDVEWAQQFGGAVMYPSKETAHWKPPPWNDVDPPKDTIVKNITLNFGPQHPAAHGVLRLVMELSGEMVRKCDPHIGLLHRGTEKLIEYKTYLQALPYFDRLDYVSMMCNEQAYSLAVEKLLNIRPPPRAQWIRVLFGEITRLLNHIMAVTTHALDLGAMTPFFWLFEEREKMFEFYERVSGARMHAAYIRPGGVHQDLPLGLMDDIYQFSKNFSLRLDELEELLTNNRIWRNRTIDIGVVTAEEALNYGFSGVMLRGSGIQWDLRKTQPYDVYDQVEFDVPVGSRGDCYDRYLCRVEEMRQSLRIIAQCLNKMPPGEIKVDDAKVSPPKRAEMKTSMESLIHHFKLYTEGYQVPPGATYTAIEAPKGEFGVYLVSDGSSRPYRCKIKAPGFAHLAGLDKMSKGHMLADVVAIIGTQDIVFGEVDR
UniProt P28331, whole entry, looked up: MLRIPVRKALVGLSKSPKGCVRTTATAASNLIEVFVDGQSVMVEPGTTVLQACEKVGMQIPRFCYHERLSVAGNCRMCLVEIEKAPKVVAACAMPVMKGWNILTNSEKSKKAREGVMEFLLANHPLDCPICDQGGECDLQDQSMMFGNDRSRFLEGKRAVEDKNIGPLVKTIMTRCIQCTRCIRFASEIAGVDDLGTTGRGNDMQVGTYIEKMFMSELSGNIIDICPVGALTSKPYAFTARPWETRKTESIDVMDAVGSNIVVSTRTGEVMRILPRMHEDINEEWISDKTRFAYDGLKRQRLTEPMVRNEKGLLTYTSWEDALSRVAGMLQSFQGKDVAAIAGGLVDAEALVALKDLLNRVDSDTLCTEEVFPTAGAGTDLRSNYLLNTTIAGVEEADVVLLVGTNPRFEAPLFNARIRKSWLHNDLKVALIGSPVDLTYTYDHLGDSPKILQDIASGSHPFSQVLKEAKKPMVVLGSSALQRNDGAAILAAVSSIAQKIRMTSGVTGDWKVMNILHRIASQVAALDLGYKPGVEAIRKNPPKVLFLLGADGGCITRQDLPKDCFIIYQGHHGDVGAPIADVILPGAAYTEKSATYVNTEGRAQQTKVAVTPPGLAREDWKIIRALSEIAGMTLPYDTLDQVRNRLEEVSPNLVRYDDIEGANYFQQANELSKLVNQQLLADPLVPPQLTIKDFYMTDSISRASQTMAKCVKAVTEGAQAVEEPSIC
UniProt Q8NC96: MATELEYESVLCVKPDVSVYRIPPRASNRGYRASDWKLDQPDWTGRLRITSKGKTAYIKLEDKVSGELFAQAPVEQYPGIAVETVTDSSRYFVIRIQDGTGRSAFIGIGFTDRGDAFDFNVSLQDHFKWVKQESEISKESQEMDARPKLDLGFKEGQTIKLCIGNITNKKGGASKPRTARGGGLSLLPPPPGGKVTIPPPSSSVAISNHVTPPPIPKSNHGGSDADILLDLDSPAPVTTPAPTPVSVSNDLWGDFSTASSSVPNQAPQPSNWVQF
UniProt O43639, whole entry, looked up: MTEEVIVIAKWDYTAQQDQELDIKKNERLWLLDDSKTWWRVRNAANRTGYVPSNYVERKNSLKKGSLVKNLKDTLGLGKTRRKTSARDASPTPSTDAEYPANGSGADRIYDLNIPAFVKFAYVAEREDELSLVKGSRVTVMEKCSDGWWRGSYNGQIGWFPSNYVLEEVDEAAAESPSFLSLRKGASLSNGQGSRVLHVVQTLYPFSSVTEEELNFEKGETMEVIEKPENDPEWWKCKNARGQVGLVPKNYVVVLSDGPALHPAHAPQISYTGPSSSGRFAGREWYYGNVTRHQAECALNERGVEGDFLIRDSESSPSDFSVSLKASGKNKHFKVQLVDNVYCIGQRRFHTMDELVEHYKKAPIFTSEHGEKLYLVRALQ
UniProt Q9NX14, whole entry, looked up: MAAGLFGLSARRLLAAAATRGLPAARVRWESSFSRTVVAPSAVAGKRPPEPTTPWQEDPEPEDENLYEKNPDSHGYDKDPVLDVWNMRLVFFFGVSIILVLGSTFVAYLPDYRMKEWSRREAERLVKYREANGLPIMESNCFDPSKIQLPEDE
UniProt O75251, whole entry, looked up: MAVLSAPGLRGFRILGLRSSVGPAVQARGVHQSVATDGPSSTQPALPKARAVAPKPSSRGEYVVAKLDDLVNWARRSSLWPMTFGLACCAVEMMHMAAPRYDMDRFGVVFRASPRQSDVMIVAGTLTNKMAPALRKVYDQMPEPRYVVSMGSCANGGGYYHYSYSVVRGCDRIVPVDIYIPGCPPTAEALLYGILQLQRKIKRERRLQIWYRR
UniProt Q9UI09, whole entry, looked up: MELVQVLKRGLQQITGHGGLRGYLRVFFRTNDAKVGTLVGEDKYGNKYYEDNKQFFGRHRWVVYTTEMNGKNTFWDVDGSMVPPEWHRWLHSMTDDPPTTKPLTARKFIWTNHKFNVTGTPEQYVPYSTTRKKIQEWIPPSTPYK
UniProt A2RRP1: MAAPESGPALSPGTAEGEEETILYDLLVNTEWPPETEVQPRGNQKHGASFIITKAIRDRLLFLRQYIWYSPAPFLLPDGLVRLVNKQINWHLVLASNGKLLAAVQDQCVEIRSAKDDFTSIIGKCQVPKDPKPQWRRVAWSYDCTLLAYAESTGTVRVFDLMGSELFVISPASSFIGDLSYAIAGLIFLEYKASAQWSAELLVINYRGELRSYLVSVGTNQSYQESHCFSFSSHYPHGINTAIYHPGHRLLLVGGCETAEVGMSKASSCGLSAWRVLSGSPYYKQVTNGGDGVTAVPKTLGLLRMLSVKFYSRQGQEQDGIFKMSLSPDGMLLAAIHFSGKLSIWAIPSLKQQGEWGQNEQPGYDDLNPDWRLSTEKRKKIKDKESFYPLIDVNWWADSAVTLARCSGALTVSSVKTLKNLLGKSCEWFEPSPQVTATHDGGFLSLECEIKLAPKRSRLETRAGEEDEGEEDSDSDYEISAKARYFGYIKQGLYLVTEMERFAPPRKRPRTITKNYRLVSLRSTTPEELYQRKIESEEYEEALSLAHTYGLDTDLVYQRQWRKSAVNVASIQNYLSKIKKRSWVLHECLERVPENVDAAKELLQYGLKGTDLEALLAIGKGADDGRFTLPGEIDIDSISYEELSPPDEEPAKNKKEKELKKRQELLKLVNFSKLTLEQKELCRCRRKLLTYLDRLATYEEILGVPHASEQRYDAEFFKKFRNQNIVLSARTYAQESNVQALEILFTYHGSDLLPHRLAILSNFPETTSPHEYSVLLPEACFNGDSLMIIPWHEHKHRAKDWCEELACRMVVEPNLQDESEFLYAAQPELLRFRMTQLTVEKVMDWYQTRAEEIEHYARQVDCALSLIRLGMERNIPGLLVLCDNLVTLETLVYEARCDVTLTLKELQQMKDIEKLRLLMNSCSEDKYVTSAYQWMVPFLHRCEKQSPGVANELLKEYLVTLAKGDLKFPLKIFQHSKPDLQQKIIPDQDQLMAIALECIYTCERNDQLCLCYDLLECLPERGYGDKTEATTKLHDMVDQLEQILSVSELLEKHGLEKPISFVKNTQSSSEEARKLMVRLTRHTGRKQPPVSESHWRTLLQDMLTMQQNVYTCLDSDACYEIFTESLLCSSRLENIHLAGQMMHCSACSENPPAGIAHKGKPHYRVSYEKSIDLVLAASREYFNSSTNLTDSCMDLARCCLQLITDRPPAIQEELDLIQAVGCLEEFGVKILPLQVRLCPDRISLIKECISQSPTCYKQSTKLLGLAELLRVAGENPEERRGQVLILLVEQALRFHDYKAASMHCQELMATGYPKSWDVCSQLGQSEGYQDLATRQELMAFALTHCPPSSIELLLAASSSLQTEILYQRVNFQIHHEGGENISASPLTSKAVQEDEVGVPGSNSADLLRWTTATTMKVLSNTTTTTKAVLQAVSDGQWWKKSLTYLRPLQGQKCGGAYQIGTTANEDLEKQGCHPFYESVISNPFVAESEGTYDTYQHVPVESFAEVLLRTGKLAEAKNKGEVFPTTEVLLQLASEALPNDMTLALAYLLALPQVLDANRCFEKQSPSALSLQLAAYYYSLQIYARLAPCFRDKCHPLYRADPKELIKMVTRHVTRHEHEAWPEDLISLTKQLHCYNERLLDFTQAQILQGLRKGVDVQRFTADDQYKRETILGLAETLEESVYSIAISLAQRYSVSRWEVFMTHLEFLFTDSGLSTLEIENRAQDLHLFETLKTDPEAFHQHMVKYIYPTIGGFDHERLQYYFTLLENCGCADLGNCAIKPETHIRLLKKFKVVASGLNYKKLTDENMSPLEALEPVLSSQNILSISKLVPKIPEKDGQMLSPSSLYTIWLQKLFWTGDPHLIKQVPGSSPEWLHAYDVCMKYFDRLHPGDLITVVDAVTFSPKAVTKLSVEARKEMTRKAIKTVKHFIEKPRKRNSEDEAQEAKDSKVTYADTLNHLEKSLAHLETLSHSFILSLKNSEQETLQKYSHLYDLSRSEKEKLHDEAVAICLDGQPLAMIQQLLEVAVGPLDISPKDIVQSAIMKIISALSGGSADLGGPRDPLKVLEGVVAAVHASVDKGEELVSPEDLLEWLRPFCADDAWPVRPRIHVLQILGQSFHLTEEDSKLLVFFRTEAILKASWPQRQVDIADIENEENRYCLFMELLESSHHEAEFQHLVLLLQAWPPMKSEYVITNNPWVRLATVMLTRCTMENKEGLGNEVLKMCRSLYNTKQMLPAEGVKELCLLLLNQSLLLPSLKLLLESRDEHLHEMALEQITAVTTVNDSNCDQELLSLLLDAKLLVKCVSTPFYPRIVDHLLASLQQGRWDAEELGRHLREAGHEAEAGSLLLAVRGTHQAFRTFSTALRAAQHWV
UniProt Q96NT1: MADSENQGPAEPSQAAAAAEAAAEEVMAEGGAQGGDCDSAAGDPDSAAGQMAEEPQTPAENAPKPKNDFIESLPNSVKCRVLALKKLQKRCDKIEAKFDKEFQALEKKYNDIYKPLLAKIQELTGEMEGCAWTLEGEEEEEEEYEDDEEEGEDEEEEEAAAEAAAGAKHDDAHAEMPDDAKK
UniProt O95168, whole entry, looked up: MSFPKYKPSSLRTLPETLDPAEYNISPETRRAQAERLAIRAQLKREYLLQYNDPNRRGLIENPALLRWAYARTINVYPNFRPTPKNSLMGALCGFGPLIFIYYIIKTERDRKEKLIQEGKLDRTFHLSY
UniProt Q8IW45: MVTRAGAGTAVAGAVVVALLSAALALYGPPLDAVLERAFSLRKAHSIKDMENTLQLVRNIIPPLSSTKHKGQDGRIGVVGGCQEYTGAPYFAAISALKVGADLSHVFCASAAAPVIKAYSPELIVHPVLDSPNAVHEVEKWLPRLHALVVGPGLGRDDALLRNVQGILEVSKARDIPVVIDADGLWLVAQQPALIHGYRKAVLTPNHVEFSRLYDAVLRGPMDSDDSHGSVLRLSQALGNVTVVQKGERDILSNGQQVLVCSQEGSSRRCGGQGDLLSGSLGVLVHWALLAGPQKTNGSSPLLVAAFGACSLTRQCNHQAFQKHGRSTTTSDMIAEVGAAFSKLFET
UniProt Q9UHQ1: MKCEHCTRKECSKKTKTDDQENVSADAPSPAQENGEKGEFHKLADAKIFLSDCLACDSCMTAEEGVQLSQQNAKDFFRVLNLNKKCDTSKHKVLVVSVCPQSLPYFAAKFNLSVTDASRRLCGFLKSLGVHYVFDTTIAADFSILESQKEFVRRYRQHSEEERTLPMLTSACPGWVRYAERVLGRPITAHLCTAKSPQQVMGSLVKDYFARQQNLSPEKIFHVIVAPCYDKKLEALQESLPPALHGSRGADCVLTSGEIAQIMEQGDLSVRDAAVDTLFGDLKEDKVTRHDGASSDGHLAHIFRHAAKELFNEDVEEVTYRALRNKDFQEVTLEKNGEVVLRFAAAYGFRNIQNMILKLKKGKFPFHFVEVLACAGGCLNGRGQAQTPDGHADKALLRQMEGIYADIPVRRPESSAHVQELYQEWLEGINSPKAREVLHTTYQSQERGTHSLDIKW

Assays:
Experiment in all cases: log2 fold change, soluble protein after heating vs DMSO (PISA); higher = thermal stabilisation; K562 cells, 10 uM, 30 min; active = over 0.2 and 3.5 SD of the protein, either way, in both replicates (recomputed)
[1] = compound: C1=CC=C(C=C1)[C@H](COC2=CC3=C(C=C2)NC(=O)N3)NC(=O)C4=CC=CN(C4=O)CC5=CC(=C(C=C5)F)F
How it was run: (§1)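 K562 cells (2×10^6 cells/mL) were treated with 10 μM compound for 30 min, and aliquots were heated for 3 min over 48°C-58°C. Pooled aliquots were extracted in PBS with 0.5% NP-40 at 4°C, and the supernatant after 21,000xg for 90 min was measured by TMTpro 16plex LC-MS/MS with channel sums equalised. Reported thermal stability, relative to control samples and from duplicates, is a log2 fold change.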

[2] = compound: CC1=C(SC2=C1C(=N[C@H](C3=NN=C(N32)C)CC(=O)N)C4=CC=C(C=C4)Cl)C
How it was run: as §1

[3] = compound: CC1=C2C(=CC=C1)N=C(N(C2=O)C3=CC=CC=C3C)CN4C=NC5=C(N=CN=C54)N
How it was run: as §1

[4] = compound: Cc1sc2c(c1C)C(c1ccc(Cl)cc1)=N[C@@H](CC(=O)OC(C)(C)C)c1nnc(C)n1-2
How it was run: as §1

[5] = compound: c1ccc([C@@H]2C[C@H]2NC2CCNCC2)cc1
How it was run: as §1

Measured: log2 fold change

NEDD1 isoform 3 (UniProt Q8NHV4)
inactive: [1] -0.024 | [2] 0.067 | [3] 0.058 | [4] 0.002 | [5] 0.052

NAXE (UniProt Q8NCW5)
inactive: [1] 0.023 | [2] 0.108 | [3] 0.029 | [4] -0.098 | [5] -0.026

NA, A0A0B4J2A0
inactive: [1] -0.035 | [2] -0.005 | [3] 0.015 | [4] -0.097 | [5] -0.007

NANP (UniProt Q8TBE9)
inactive: [1] -0.041 | [2] 0.053 | [3] 0.105 | [4] 0.023 | [5] 0.013

NCL (UniProt P19338)
inactive: [1] 0.158 | [2] -0.365 | [3] -0.299 | [4] 0.227 | [5] 0

NAA15 (UniProt Q9BXJ9)
inactive: [1] -0.002 | [2] 0.022 | [3] 0.009 | [4] -0.022 | [5] -0.034

NDUFS2 (UniProt O75306)
inactive: [1] -0.018 | [2] 0.011 | [3] -0.019 | [4] -0.038 | [5] -0.044

NDUFS1 isoform 2 (UniProt P28331)
inactive: [1] -0.021 | [2] 0.056 | [3] 0.075 | [4] -0.041 | [5] -0.024

N4BP1 (UniProt O75113)
inactive: [1] 0.043 | [2] 0.043 | [3] 0.155 | [4] 0.004 | [5] 0.001

NECAP1 (UniProt Q8NC96)
inactive: [1] 0.017 | [2] 0.033 | [3] 0.073 | [4] -0.02 | [5] -0.01

NCK2 (UniProt O43639)
inactive: [1] -0.057 | [2] 0.066 | [3] 0.259 | [4] -0.143 | [5] -0.015

NDUFB11 isoform 2 (UniProt Q9NX14)
inactive: [1] 0.043 | [2] 0.081 | [3] -0.013 | [4] -0.101 | [5] -0.021

NDUFV1 (UniProt P49821)
inactive: [1] -0.018 | [2] 0.05 | [3] 0.048 | [4] -0.014 | [5] -0.045

NDUFS7 (UniProt O75251)
inactive: [1] 0 | [2] 0.062 | [3] 0.015 | [4] -0.051 | [5] -0.022

NACA4P (UniProt Q9BZK3)
inactive: [1] -0.171 | [2] 0.23 | [3] 0.035 | [4] 0.278 | [5] -0.069

NBN (UniProt O60934)
inactive: [1] 0.002 | [2] 0.032 | [3] 0.036 | [4] -0.004 | [5] -0.001

NA isoform 3 (UniProt Q4G0T1)
inactive: [1] 0.161 | [2] -0.017 | [3] 0.026 | [4] 0.024 | [5] -0.126

NDUFA12 (UniProt Q9UI09)
inactive: [1] -0.046 | [2] 0.126 | [3] 0.145 | [4] -0.086 | [5] -0.051

NBAS (UniProt A2RRP1)
inactive: [1] 0.078 | [2] -0.137 | [3] -0.033 | [4] 0.11 | [5] -0.094

NAP1L5 (UniProt Q96NT1)
inactive: [1] -0.107 | [2] 0.017 | [3] 0.097 | [4] -0.008 | [5] 0.046

NDUFB4 (UniProt O95168)
inactive: [1] 0.074 | [2] 0.022 | [3] 0.084 | [4] -0.043 | [5] -0.028

NAXD (UniProt Q8IW45)
inactive: [1] 0.065 | [2] 0.009 | [3] -0.003 | [4] 0.017 | [5] 0.02

NARF (UniProt Q9UHQ1)
inactive: [1] -0.014 | [2] -0.028 | [3] 0.043 | [4] 0 | [5] 0.031

Random excerpt: 2 records from the list, in no set order.
NARF (UniProt Q9UHQ1)
inactive: [1] -0.014 | [2] -0.028 | [3] 0.043 | [4] 0 | [5] 0.031

NAP1L5 (UniProt Q96NT1)
inactive: [1] -0.107 | [2] 0.017 | [3] 0.097 | [4] -0.008 | [5] 0.046

Next records follow.

NAGK isoform 2 (UniProt Q9UJ70)
inactive: [1] 0.06 | [2] 0.039 | [3] 0.047 | [4] 0.031 | [5] 0.016
